Experimental findings from the supplement of paper PMC10849652 are described below.

Amino acid sequences for entries named in this document (tags omitted). A change or cut given only in a name is not applied to a line headed by its entry.
UniProt Q9NYI0: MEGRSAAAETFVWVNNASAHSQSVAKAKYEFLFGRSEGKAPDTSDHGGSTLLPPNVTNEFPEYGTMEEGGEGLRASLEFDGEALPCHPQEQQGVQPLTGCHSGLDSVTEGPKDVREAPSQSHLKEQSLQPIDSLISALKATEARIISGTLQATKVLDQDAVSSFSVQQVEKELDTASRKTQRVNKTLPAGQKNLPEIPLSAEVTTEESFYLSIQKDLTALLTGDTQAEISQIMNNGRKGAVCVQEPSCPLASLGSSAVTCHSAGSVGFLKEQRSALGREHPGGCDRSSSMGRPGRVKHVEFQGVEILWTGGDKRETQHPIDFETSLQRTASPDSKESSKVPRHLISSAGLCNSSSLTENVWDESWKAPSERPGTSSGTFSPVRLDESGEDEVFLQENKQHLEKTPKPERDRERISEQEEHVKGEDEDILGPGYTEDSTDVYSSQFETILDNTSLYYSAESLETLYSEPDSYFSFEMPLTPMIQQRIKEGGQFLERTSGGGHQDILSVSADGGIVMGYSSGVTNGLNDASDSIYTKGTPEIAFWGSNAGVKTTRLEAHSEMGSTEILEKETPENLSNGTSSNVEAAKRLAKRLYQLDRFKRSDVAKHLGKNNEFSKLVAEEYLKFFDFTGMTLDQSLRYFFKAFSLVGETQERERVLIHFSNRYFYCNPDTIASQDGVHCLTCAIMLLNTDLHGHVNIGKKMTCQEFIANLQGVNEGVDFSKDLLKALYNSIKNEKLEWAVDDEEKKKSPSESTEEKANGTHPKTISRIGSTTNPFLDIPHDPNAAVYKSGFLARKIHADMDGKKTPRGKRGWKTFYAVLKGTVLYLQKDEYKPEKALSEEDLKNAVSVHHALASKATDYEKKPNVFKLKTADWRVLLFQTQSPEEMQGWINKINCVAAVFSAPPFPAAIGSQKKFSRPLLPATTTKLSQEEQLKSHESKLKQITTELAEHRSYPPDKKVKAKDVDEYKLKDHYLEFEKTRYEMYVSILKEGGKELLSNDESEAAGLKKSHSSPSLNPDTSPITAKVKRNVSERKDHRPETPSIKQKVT
UniProt Q8WUY3: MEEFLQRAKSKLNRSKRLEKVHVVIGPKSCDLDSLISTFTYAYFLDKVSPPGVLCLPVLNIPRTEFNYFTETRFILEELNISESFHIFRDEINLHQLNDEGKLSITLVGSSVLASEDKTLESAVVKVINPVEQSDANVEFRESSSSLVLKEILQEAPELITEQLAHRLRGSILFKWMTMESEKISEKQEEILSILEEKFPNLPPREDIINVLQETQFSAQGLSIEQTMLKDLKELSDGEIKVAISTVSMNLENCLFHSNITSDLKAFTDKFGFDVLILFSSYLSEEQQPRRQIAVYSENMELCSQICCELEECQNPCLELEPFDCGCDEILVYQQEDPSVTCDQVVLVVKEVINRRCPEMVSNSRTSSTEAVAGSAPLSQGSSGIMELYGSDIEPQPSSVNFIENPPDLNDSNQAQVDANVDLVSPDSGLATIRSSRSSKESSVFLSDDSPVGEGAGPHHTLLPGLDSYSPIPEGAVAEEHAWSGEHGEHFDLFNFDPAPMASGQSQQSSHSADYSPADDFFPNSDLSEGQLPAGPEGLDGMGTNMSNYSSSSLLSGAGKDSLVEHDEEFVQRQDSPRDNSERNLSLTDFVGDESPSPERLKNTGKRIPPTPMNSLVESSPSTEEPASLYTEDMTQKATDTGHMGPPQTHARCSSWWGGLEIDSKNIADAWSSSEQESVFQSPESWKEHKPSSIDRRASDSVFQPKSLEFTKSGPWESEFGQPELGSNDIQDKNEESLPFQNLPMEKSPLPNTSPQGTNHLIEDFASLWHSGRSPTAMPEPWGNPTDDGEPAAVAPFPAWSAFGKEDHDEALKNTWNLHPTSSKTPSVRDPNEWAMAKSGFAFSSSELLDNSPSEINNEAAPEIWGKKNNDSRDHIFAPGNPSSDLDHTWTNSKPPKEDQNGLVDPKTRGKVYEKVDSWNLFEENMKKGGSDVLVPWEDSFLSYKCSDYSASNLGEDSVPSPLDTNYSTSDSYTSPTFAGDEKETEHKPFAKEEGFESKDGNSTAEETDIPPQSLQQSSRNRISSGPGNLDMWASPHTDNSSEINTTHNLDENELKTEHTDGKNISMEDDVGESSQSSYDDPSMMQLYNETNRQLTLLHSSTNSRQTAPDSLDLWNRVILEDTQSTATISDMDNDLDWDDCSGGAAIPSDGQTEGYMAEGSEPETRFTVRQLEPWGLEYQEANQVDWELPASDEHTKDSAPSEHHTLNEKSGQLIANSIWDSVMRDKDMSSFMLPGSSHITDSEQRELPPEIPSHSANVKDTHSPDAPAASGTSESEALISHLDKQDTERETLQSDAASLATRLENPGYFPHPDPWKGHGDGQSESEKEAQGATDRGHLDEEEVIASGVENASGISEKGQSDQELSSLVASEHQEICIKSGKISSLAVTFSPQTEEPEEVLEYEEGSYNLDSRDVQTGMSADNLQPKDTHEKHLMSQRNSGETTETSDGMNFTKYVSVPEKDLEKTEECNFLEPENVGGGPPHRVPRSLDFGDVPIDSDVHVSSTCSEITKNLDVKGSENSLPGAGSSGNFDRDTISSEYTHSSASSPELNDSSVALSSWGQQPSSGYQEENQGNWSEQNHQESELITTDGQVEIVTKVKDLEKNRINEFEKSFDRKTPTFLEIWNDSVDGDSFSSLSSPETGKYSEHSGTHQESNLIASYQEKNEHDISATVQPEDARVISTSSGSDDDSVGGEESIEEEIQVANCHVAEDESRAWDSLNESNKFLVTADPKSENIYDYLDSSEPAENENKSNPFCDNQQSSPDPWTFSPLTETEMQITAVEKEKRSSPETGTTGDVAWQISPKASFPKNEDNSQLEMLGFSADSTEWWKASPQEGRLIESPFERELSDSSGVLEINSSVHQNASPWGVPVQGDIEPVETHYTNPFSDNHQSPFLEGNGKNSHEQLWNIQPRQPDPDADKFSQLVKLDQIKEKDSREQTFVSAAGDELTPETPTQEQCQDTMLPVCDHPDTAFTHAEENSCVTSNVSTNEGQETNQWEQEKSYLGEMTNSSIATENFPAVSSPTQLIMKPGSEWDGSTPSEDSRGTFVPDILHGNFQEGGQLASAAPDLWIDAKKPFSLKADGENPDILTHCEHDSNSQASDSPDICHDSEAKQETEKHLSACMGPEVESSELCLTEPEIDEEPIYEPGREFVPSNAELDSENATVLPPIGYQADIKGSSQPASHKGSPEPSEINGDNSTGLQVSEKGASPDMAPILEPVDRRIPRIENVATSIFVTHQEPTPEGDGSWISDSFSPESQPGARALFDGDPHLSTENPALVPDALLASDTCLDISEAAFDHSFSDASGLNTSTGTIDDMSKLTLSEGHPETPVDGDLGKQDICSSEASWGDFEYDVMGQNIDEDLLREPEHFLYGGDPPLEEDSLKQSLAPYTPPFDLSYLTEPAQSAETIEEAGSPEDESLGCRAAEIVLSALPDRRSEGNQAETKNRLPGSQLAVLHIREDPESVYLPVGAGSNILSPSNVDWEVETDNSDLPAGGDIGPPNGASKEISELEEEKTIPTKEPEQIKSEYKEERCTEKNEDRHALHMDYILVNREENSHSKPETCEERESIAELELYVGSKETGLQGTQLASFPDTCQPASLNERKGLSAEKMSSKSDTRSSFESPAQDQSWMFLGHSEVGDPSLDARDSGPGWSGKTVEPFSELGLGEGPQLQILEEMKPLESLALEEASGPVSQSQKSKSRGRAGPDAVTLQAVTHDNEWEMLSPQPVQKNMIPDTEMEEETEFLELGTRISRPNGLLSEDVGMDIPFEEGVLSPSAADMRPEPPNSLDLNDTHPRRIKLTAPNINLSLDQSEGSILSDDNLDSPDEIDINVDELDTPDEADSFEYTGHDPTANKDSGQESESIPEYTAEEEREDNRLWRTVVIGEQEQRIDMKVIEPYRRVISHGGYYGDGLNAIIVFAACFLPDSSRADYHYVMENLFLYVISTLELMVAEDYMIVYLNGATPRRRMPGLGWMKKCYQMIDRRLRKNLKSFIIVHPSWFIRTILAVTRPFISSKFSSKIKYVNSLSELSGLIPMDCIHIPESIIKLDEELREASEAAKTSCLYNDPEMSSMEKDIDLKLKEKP
UniProt Q9UHX1: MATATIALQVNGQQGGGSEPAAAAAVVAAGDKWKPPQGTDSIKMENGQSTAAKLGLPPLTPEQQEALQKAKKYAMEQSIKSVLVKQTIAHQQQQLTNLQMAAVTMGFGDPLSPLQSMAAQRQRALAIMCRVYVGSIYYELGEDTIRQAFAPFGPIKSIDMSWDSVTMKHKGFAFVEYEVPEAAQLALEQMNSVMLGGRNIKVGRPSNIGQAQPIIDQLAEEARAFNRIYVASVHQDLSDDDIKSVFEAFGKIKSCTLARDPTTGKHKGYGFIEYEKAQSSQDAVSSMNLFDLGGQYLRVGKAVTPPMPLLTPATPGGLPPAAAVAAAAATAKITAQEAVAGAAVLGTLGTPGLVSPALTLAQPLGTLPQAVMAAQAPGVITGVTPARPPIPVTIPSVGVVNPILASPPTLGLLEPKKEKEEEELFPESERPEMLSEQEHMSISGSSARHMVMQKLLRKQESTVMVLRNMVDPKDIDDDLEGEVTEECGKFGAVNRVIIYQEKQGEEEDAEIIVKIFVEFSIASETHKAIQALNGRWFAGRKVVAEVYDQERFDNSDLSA
UniProt P40306: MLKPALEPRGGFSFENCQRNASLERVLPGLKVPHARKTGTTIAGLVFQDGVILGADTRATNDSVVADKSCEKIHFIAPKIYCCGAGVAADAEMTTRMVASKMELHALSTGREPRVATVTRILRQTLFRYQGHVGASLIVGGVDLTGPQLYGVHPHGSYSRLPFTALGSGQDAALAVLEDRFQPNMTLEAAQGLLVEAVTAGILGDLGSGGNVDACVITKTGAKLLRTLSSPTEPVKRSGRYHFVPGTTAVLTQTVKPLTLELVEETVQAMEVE
UniProt Q96I23: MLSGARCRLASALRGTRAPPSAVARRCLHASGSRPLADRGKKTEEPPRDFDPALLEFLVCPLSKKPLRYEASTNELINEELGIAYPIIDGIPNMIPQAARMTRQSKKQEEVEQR
UniProt Q03393: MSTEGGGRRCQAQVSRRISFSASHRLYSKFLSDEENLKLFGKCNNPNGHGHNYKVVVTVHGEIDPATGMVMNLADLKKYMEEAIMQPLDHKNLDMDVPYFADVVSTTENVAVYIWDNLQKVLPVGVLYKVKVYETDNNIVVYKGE
UniProt P53801: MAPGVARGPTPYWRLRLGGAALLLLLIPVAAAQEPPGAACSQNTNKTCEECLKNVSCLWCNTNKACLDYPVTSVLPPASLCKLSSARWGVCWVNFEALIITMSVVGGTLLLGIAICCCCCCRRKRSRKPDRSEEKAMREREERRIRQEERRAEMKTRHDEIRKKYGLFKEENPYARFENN
UniProt O14818: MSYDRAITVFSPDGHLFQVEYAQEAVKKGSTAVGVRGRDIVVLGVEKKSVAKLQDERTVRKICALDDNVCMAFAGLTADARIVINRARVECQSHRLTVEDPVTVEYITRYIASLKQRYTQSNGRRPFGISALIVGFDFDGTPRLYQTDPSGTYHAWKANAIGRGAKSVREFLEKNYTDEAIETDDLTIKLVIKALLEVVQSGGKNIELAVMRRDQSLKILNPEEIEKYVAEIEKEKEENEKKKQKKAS
UniProt P28065: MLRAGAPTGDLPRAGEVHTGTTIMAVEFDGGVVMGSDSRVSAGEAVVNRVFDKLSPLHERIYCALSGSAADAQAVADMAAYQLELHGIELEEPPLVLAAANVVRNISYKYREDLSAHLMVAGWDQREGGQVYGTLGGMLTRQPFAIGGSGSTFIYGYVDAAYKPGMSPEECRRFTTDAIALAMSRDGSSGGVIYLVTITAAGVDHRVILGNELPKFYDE
UniProt Q9P2W1: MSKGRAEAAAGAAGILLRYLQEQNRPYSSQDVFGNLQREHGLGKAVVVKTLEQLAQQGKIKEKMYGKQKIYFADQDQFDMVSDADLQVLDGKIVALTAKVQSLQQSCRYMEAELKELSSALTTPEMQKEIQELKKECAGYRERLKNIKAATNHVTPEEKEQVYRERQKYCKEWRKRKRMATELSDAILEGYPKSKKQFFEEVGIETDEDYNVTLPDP
UniProt P15151: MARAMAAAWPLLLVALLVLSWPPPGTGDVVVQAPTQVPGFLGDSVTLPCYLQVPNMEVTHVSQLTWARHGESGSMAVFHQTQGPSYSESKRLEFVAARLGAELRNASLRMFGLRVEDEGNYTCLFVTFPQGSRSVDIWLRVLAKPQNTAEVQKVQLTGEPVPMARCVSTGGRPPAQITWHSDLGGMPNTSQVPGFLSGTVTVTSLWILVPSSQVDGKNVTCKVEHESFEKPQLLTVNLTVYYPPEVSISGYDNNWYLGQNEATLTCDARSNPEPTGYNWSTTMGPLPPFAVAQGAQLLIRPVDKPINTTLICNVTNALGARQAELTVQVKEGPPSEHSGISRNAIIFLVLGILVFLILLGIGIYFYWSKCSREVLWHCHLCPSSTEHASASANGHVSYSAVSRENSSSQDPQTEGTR

This is one part of the list.

Compound in the first assay: CC1=CC=C(C=C1)SC2=C3C=C(SC3=CN=C2)C(=O)N
The assay is described as follows: log2 fold change, soluble protein after heating vs DMSO (PISA); higher = thermal stabilisation; K562 cells, 10 uM, 30 min; active = over 0.2 and 3.5 SD of the protein, either way, in both replicates (recomputed). Put shortly: (§1)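 For each measurement, 10 μM compound was applied for 30 min to K562 cells at 2×10^6 cells/mL. Aliquots were heated for 3 min across 48°C-58°C, pooled, and extracted in PBS with 0.5% NP-40 at 4°C; the supernatant after 21,000xg for 90 min was soluble protein. This was quantified by TMTpro 16plex LC-MS/MS with channel sums equalised, and thermal stability was reported relative to control samples from duplicates, on a log2 fold-change scale.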
For PSMC1 (UniProt G3V4X1), the log2 fold change is inactive: -0.384.
As for PSD3 (UniProt Q9NYI0), the log2 fold change is inactive: -0.01.
Same read-out and setting: the value for PSMA3 (UniProt G3V4X5) was inactive: -0.117.
As for PRUNE2 isoform 3 (UniProt Q8WUY3), the log2 fold change is inactive: 0.051.
On the same count and under the same terms, the value for PUF60 isoform 2 (UniProt Q9UHX1) was inactive: 0.199; that for PSMB10 (UniProt P40306) was inactive: 0.03; that for PYURF (UniProt Q96I23) was inactive: -0.196.
Turning to PTS (UniProt Q03393), the log2 fold change was inactive: 0.065.

Compound in a further assay: CC1=NC(=CC=C1)C2=C(N=C(N2)C(C)(C)C)C3=CC4=NC=CN=C4C=C3
Described as above. The method in brief:
as §1
PSMB8 (UniProt P28062): the log2 fold change is inactive: 0.051.
The same measure, in the same setting: the value for PSMC3 (UniProt E9PLG2) was inactive: -0.217; that for PRXL2A (UniProt Q9BRX8) was inactive: 0.006; that for PTPRN2 isoform 3 (UniProt Q92932) was inactive: -0.265.
For the target PYCARD isoform 2 (UniProt Q9ULZ3), the log2 fold change is inactive: -0.129.
PSMD4 (UniProt Q5VWC4): the log2 fold change was inactive: -0.013.
In the case of PTEN isoform 2 (UniProt P60484), the log2 fold change is inactive: 0.064.
Same read-out and setting: the same measure for PTTG1IP (UniProt P53801): inactive: -0.062; for PSMA7 isoform 2 (UniProt O14818): inactive: -0.145; for PSMB9 (UniProt P28065): inactive: -0.342.
Same read-out and setting: the value for PUM1 (UniProt Q14671) was inactive: -0.028.
Regarding PSIP1 (UniProt V9GYT7), the log2 fold change was inactive: 0.051.
Same read-out and setting: the same measure for PTBP2 isoform 3 (UniProt Q9UKA9): inactive: -0.111; for PSMA3 (UniProt H0YJ03): inactive: -0.194; for PSD3 (UniProt Q9NYI0): inactive: 0.023.
The same measure, in the same setting: the same measure for PSMA3 (UniProt G3V4X5): inactive: 0.184.
Regarding PRUNE2 isoform 3 (UniProt Q8WUY3), the log2 fold change was inactive: 0.082.
As to PYURF (UniProt Q96I23), the log2 fold change is inactive: 0.029.
Regarding PTGER3 isoform 2 (UniProt P43115), the log2 fold change was inactive: -0.072.
On the same count and under the same terms, the value for PTRH1 (UniProt Q86Y79) was inactive: 0.088; that for PTS (UniProt Q03393) was inactive: -0.04.
In the case of PSMD8 (UniProt K7ERW6), the log2 fold change was inactive: -0.283.

Compound in the next assay: CCCCN(Cc1ccc(C(=O)NO)cc1)C(=O)Nc1ccccc1 [Nexturastat A]
Described as above. The method in brief: as §1
For PSMC3 (UniProt E9PLG2), the log2 fold change was inactive: 0.04.
Same read-out and setting: the same measure for PRXL2A (UniProt Q9BRX8): inactive: -0.045.
As for PTPRN2 isoform 3 (UniProt Q92932), the log2 fold change is inactive: -0.092.
As to PYCR1 (UniProt J3QKT4), the log2 fold change was inactive: 0.39.
On the same count and under the same terms, the value for PSMC3IP (UniProt Q9P2W1) was inactive: -0.087.
In the case of PURG (UniProt Q9UJV8), the log2 fold change is inactive: 0.494.
For the target PSMD4 (UniProt Q5VWC4), the log2 fold change is inactive: 0.095.
Same read-out and setting: the same measure for PTTG1IP (UniProt P53801): inactive: -0.024; for PSMA7 isoform 2 (UniProt O14818): inactive: 0.135; for PTPRJ (UniProt Q12913): inactive: -0.053.
Still for that read-out and setting: the same measure for PSMB9 (UniProt P28065): inactive: -0.233; for PVR (UniProt P15151): inactive: -0.082; for PRUNE2 isoform 3 (UniProt Q8WUY3): inactive: -0.035.
Still for that read-out and setting: the value for PYURF (UniProt Q96I23) was inactive: 0.027; that for PTS (UniProt Q03393) was inactive: -0.216.

Compound in the next assay: CCCS(=O)(=O)Nc1ccc(F)c(C(=O)c2c[nH]c3ncc(-c4ccc(Cl)cc4)cc23)c1F [vemurafenib]
Described as above. The method in brief:
as §1
PSMC3 (UniProt E9PLG2): the log2 fold change was inactive: -0.157.
Still for that read-out and setting: the same measure for PRXL2A (UniProt Q9BRX8): inactive: 0.167; for PYCR1 (UniProt J3QKT4): inactive: 0.006; for PSMC3IP (UniProt Q9P2W1): inactive: 0.153.
The same measure, in the same setting: the same measure for PSMD4 (UniProt Q5VWC4): inactive: -0.031.
Same read-out and setting: the same measure for PTTG1IP (UniProt P53801): inactive: -0.059; for PSMA7 isoform 2 (UniProt O14818): inactive: -0.401.
Turning to PSMB9 (UniProt P28065), the log2 fold change was inactive: -0.08.
Still for that read-out and setting: the same measure for R3HCC1L (UniProt Q7Z5L2): inactive: 0.102.
On to PVR (UniProt P15151), for which the log2 fold change is inactive: 0.028.
Same read-out and setting: the value for PSMA3 (UniProt H0YJ03) was inactive: -0.145.
On the same count and under the same terms, the value for PTP4A3 (UniProt O75365) was inactive: 0.207; that for PSD3 (UniProt Q9NYI0) was inactive: -0.019; that for PSMA3 (UniProt G3V4X5) was inactive: -0.012.
For the target PRUNE2 isoform 3 (UniProt Q8WUY3), the log2 fold change was inactive: 0.103.
The same measure, in the same setting: the same measure for PUF60 isoform 2 (UniProt Q9UHX1): inactive: 0.135.
For the target PSMB10 (UniProt P40306), the log2 fold change was inactive: -0.056.
On the same count and under the same terms, the same measure for PYURF (UniProt Q96I23): inactive: -0.09; for PTS (UniProt Q03393): inactive: 0.023.
Take PSMD8 (UniProt K7ERW6): the log2 fold change is inactive: -0.236.

Compound in another assay: CCCS(=O)(=O)Nc1ccc(F)c(C(=O)c2c[nH]c3ncc(Cl)cc23)c1F
The assay is described as above. The method in brief:
as §1
For PRXL2A (UniProt Q9BRX8), the log2 fold change was inactive: -0.047.
In the case of PSMC3IP (UniProt Q9P2W1), the log2 fold change is inactive: -0.017.
On the same count and under the same terms, the same measure for PSMD4 (UniProt Q5VWC4): inactive: -0.005; for PTEN isoform 2 (UniProt P60484): inactive: -0.016.
As to PTTG1IP (UniProt P53801), the log2 fold change is inactive: 0.02.
Regarding PSMA7 isoform 2 (UniProt O14818), the log2 fold change is inactive: -0.596.
The same measure, in the same setting: the value for PSMB9 (UniProt P28065) was inactive: -0.047; that for R3HCC1L (UniProt Q7Z5L2) was inactive: -0.116.
As to PSIP1 (UniProt V9GYT7), the log2 fold change was inactive: -0.108.
On the same count and under the same terms, the same measure for PVR (UniProt P15151): inactive: 0.023; for PTBP2 isoform 3 (UniProt Q9UKA9): inactive: -0.147.
With PSMA3 (UniProt H0YJ03), the log2 fold change was inactive: -0.134.
Regarding PSMC1 (UniProt G3V4X1), the log2 fold change is inactive: -0.154.
Still for that read-out and setting: the same measure for PSD3 (UniProt Q9NYI0): inactive: 0.049; for PSMA3 (UniProt G3V4X5): inactive: 0.013; for PRUNE2 isoform 3 (UniProt Q8WUY3): inactive: 0.062.
Still for that read-out and setting: the same measure for PUF60 isoform 2 (UniProt Q9UHX1): inactive: 0.35; for PSMB10 (UniProt P40306): inactive: -0.026; for PYURF (UniProt Q96I23): inactive: 0.057.
As for PTS (UniProt Q03393), the log2 fold change was inactive: 0.035.
